The values below come from patent US12048281B2, “Method for treating post-emergent rice” (BASF SE, priority 2009, dated 2024).

The test system of one series is rice calli. Put plainly: Tissue culture selection of herbicide-tolerant mutant rice lines from calli. Format: cell-based, Oryza sativa. Conditions: for Rate: mutants per # calli; for lines confirmed as mutants: share of recovered lines when selection was on this herbicide.
A further series has as its system maize callus. Conditions: stepwise selection at 0.5, 1.0, 2.0, 5.0 and 10 μM, cited from earlier work.
Where [1] appears, read: Total over genotypes for this selection agent.
The mark [2] stands for this setting: genotype Indica 1, mutant lines per gram of callus.
The mark [3] stands for this setting: genotype Indica 1, number of mutant lines recovered with this selection agent.

Like-named read-outs stand apart in the source and are kept apart here.

With `CCCC(=NOCC)C1=C(O)CC(C2CCCSC2)CC1=O` (centres unmarked) [cycloxydim], the “#/gm callus” value was 0.09 #/gm callus with rice calli (setting [1]); 0.07 #/gm callus in the series on rice calli (setting [2]); 0.15 #/gm callus in the series on rice calli (genotype Koshi (Koshihikari)); 0.01 #/gm callus in the series on rice calli (genotype NB (Nipponbare)); 0.20 #/gm callus in the series on rice calli (genotype T309 (Taipei 309)). Moreover, the Mutants in the series with rice calli (setting [3]) worked out at 3; in the series with rice calli (genotype Koshi (Koshihikari)) it was 6; with rice calli (genotype NB (Nipponbare)) it was 1; with rice calli (genotype T309 (Taipei 309)) it was 8. The molecule also returned a Rate with rice calli (genotype NB (Nipponbare)) of 0.029%. For the same molecule, in the series on rice calli, the “lines confirmed as mutants” value came to 68%.

`CCC/C(=N\OCC)C1=C(O)CC(CC(C)SCC)CC1=O` (centres unmarked) [sethoxydim]: the “#/gm callus” value in the series with rice calli (setting [1]) is reported as 0.03 #/gm callus; in the series with rice calli (setting [2]) it was 0.05 #/gm callus; in the series with rice calli (genotype NB (Nipponbare)), 0.00 #/gm callus; in the series on rice calli (genotype T309 (Taipei 309)) it was 0.00 #/gm callus. Moreover, the results for the Mutants in the series with rice calli (setting [3]), with rice calli (genotype NB (Nipponbare)) and in the series with rice calli (genotype T309 (Taipei 309)) were 3, 0 and 0, respectively. In addition, the Rate in the series with rice calli (genotype NB (Nipponbare)) and in the series on rice calli (genotype T309 (Taipei 309)) was 0.000% in each case. Further, the “lines confirmed as mutants” value in the series with rice calli was found to be 21%. Moreover, the calculated mutation rate in the series with maize callus (100 g of callus) is 0.02 lines/g; in the series on maize callus, 2 lines/100 g of callus.
